Reference: patent US20060026702A1, “Phosphoinositide 3-kinase mediated inhibition of GPCRs” (DUKE UNIVERSITY, priority 2002, published 2006)
These are yes or no findings as the source states them, for the method shown. Some results given as binding are weak or reduced against the parent protein; the word gives no strength.

By UniProt entry, the sequences of proteins in these tests, tags left out. Where a name states a change or a piece, a line headed by the entry shows the natural chain unless it says otherwise. Residues count along the entry.
UniProt P42336: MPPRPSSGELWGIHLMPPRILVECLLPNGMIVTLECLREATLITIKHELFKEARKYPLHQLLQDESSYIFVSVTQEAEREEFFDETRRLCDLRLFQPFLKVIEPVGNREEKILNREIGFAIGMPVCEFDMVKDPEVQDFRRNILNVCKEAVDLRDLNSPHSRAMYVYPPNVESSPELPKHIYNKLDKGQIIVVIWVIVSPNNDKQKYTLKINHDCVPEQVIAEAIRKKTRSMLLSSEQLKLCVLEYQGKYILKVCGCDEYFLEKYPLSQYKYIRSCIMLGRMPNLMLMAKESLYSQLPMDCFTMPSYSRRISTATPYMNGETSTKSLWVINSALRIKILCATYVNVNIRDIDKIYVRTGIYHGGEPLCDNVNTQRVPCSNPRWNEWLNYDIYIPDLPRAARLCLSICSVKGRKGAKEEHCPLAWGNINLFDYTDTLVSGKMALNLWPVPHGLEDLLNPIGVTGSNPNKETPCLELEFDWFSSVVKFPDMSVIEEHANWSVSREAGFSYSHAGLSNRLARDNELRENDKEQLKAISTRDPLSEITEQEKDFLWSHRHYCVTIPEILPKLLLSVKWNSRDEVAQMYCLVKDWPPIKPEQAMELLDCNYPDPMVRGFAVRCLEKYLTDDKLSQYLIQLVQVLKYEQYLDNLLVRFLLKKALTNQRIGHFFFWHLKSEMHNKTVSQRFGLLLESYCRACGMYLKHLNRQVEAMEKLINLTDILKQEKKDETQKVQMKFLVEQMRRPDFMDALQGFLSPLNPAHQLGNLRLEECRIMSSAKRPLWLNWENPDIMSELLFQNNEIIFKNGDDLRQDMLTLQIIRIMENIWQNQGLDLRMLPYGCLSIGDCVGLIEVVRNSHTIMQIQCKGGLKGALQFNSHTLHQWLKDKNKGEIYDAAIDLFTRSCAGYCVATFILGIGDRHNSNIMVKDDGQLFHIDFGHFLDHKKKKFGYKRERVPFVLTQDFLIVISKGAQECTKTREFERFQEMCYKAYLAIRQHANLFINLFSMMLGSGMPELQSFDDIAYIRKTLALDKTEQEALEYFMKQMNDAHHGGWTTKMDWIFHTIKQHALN
UniProt Q99MK8: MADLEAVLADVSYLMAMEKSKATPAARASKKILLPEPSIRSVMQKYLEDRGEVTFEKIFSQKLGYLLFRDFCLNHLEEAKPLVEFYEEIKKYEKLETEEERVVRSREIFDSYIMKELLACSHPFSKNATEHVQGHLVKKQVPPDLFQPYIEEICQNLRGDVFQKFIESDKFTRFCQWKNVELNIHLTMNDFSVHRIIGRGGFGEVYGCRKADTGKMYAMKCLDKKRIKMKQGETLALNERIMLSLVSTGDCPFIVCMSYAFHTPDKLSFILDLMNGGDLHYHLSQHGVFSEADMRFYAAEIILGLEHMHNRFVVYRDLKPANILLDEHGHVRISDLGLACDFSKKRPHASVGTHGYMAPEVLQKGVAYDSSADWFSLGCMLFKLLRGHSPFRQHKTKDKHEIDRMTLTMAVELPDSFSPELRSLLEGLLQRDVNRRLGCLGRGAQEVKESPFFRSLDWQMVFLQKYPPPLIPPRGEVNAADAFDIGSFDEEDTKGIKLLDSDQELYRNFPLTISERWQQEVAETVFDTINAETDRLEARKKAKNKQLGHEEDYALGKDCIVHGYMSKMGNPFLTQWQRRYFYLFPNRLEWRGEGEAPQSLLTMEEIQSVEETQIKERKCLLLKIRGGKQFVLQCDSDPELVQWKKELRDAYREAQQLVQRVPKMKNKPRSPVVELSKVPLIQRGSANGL
UniProt P21146, residues 495-689: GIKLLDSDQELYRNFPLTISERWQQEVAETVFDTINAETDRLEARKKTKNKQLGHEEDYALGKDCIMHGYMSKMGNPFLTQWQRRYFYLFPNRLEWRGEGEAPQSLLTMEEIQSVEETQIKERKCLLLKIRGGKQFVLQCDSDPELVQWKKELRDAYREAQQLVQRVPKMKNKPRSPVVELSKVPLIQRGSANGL
UniProt Q9JHG7: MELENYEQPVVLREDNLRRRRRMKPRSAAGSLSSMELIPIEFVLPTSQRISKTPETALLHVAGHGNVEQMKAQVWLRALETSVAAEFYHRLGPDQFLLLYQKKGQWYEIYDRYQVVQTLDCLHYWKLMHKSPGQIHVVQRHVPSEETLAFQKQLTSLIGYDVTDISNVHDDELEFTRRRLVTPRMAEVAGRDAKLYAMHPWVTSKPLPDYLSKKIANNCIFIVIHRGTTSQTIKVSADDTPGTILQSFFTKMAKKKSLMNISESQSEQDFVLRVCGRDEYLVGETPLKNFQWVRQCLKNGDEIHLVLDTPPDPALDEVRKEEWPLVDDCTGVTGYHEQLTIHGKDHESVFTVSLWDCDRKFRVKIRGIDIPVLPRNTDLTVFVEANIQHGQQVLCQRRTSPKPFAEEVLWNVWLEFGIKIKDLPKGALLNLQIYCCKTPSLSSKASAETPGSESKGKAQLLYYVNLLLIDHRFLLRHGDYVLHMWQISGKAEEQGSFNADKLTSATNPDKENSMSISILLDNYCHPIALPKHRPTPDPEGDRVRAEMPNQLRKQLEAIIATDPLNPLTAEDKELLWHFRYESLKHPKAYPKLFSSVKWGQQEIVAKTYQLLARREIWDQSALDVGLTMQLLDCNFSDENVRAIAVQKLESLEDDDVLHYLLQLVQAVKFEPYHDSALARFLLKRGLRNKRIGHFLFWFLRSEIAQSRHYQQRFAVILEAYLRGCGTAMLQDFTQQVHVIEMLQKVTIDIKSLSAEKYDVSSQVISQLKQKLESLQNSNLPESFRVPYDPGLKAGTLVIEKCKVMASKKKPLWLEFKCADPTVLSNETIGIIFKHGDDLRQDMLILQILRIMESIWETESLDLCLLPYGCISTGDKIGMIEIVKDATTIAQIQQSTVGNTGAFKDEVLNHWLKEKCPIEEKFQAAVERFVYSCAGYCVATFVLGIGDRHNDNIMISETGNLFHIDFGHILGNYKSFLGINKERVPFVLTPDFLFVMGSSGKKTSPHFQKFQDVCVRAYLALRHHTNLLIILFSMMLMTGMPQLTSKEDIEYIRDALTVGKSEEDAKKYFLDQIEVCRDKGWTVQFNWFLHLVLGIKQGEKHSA

How the values were obtained:
[1] = molecular target: Myc-PI3Kα (Homo sapiens (Human)) (UniProt P42336); assay: PI3K immunoprecipitation (anti-myc), immunoblot with a βARK1 C-terminus polyclonal antibody
[2] = molecular target: Myc-PI3Kα (Homo sapiens (Human)) (UniProt P42336); assay: immunoprecipitation with anti-myc, immunoblot with a βARK1 C-terminus polyclonal antibody, transfected NIH-3T3 cells
[3] = molecular target: endogenous βARK1 of mouse heart (mouse) (UniProt Q99MK8); assay: βARK1 immunoprecipitation from mouse myocardial extracts, PI3K activity and PI3Kγ immunoblot
[4] = molecular target: endogenous βARK1 of mouse heart (mouse) (UniProt Q99MK8); assay: βARK1 immunoprecipitation from mouse myocardial extracts, immunoblot

Substance | binding [1] | binding [2] | binding [3] | binding [4]
carboxyl terminus of βARK1 (βARKct) (from UniProt P21146 495-689) | binds | binds | – | –
endogenous PI3Kγ of mouse heart (from UniProt Q9JHG7 1-1102) (enzyme) | – | – | binds | binds
